Experimental data from US20150297564A1 (CORNELL UNIVERSITY, priority 2014, published 2015).
At least one compound was matched to its structure with a doubt left.

System: GLUT2
Test: Islet GLUT2 protein level (Western blot)
Assay type: cell-based, mouse
Details: WT, GKO, and SKO islets (range over genotypes, mixed % and fold)
Description: All chemicals were purchased from Sigma (Saint Louis, Mo.) unless indicated otherwise. Detailed protocols, reagents, and instruments for islet isolation, culture, and insulin secretion were the same as described previously (Wang et al., “Molecular Mechanisms for Hyperinsulinaemia Induced by Overproduction of Selenium-Dependent Glutathione Peroxidase-1 in Mice,” Diabetologia 51:1515-1524 (2008), which is hereby incorporated by reference in its entirety). Briefly, Langerhans' islets were isolated from the WT, GKO, SKO, and dKO mice using a standard procedure (Gotoh et al., “An Improved Method for Isolation of Mouse Pancreatic Islets,” Transplantation 40:437-438 (1985), which is hereby incorporated by reference in its entirety) with minor modifications. Isolated islets (50 per sample, n=3 per group) were recovered in RPMI 1640 (Gibco, Grand Island, N.Y.) with 5.5 mM glucose and 10% FBS for 2 hours before treatment. For the islet experiments, ebselen, CuDIPs, and Se (sodium selenite) were used at 50, 10, and 0.1 μM and prepared in DMSO, ethanol, and saline, respectively. The same amounts of vehicle were used as the respective controls. The chemicals were removed after 5 hour incubation, and the islets were transferred to Krebs-Henseleit buffer for 30 min and then incubated for 60 min with 2.8 or 16.7 mM glucose in the same buffer. […]

O=[Se]([O-])[O-].[Na+].[Na+] [Na2SeO3, sodium selenite]
GLUT2 protein increase versus control: 31% to 1.5-fold
